Measurements: patent publication US7985773B2 (American Sterilizer Company, priority 2004, dated 2011)
Several values for one entry are separate records, joined by “and”; a condition that tells them apart may be missing. Equal entries are not always repeated. The name of at least one read-out is uncertain.

Test system: Serratia marcescens ATCC 14756
Experiment: Residual activity testing procedure on pigskin
Format: cell-based
Details: for Average Log Reduction: average of two series
Protocol: The gram negative organism was grown for approximately 24 hours at 30° C. and then suspended in Butterfields Buffer to a count of 1×10^8. The pigskins were prepared according to the following standard of procedure. Pigskin hides are collected on the date of slaughter and processed on the same day by removing adipose tissue and thoroughly cleaning the hide. Both of these processes are accomplished by spraying both sides of the pig hide with a high pressure washer. No soap or detergents are used at any time during the processing of pig hides for laboratory use. After cleaning and de-fatting, pigskins are placed in water and frozen at the farm from which they were harvested. When required for laboratory testing, a representative procures the hides and thaws them for laboratory manipulation. In the laboratory, these hides are cut into manageable pieces with a scalpel and coarse hair removed with animal grooming clippers. Disposable razors are further employed to create a smooth surface without negatively affecting the skin surface. These pieces are then sterilized by Gamma irradiation and kept frozen until use in a study. Testing circles were then punched out of the pigskins and glued to a phenolic cap. The testing samples were placed in a 30° C. oven to equilibrate for at least 20 minutes. Each skin was treated with 150 μl of test product and rubbed for 30 seconds as a pair, skin to skin. The skins were allowed to dry for 30 seconds and then the test product was reapplied four times in the same manner. The skins were allowed to dry in a slightly opened hood for 15 minutes. After drying the skins were inoculated with 31 μl of the Serratia marcescens inoculum, as prepared above, rubbed for 15 seconds, and sampled after three minutes. To sample, a sterile 3.5 cm diameter cylinder is placed, lip side down, over the pigskin on the cap. Enough pressure is applied to the cylinder to prevent any leakage upon the addition of an appropriate volume of liquid sampling solution to the cylinder. […]

SMILES	Average Log Reduction (additive at the active % listed in Table III in the Table I base, pigskin residual activity)	Log Reduction (single skin sample (series), additive at the active % listed in Table III in the Table I isopropyl alcohol base, product applied 5 times, dried 15 min, inoculated, sampled after three minutes)	Average Log Reduction (additive at 0.5 parts by weight per 100 parts total composition in the Table I base, FIG. 2)
CCCCCCCCCCCC(=O)OCC(O)CO (stereo not drawn) [Glyceryl monolaurate]	−0.18 and −0.23	−0.17 and −0.10 and −0.26 and −0.29	–
OCCOc1ccccc1 [Phenoxyethanol, Phenoxyethanol (ethylene glycol phenyl ether)]	–	–	5.60
